The source of these data is publication PMC3701561.

No constants are given. Whether binding was seen depends on the method and setting. A result given as binding can be weak or reduced; the word gives no strength.

Some targets named below: BnaMPK2 (Brassica napus) (UniProt S4TFE6); BnaMPK3 (Brassica napus) (UniProt S4TG54); BnaMPK1 (Brassica napus) (UniProt S4TFK2); BnaMPK5 (Brassica napus); BnaMPK9 (Brassica napus) (UniProt Q5XU40); BnaMPK6 (Brassica napus) (UniProt S4TFE7).
Common to all, as to assay: two-hybrid; yeast AH109; BnaMPKs in pGBKT7, BnaMKKs and BnaWRKYs (whole or truncated) in pGADT7; growth on SD-LTHA, dilution series, X-gal colony-lift staining
Experiment [1] addresses BnaMPK20 (Brassica napus) (UniProt S4TFK4).
Experiment [2] has as its target BnaMPK19 (Brassica napus) (UniProt S4TFP8).

As to BnaMKK1 (from UniProt S4TFE4), the binding entry is on record as “no binding” with BnaMPK2 (Brassica napus); “binds” with BnaMPK3 (Brassica napus); “no binding” with BnaMPK1 (Brassica napus); “no binding” with BnaMPK5 (Brassica napus); “no binding” in experiment [1]; “no binding” in the experiment with BnaMPK9 (Brassica napus). Further, the binding result with BnaMPK6 (Brassica napus) is “binds”.
For the substance BnaMKK2 (from UniProt S4TFK1), the binding result in the experiment with BnaMPK2 (Brassica napus) was “no binding”; in the experiment with BnaMPK3 (Brassica napus) it was “binds”; in the experiment with BnaMPK1 (Brassica napus), “no binding”; with BnaMPK5 (Brassica napus) it was “no binding”; in experiment [1] it was “no binding”; with BnaMPK9 (Brassica napus), “no binding”. Besides, in the experiment with BnaMPK6 (Brassica napus), the binding result is “binds”.
Regarding BnaMKK4 (from UniProt S4TFY8), the binding result with BnaMPK2 (Brassica napus) is on record as “no binding”; with BnaMPK3 (Brassica napus), “binds”; with BnaMPK1 (Brassica napus), “no binding”; with BnaMPK5 (Brassica napus), “no binding”; in experiment [1], “no binding”; with BnaMPK9 (Brassica napus) it was “no binding”. Moreover, the binding result with BnaMPK6 (Brassica napus) was “binds”; in experiment [2], “no binding”.
BnaMKK5 (from UniProt S4TFZ1): the binding result with BnaMPK2 (Brassica napus) was “no binding”; in the experiment with BnaMPK3 (Brassica napus), “binds”; with BnaMPK1 (Brassica napus) it was “no binding”; with BnaMPK5 (Brassica napus) it was “no binding”; in experiment [1], “no binding”; with BnaMPK9 (Brassica napus), “no binding”. Also, the binding result is recorded as “binds” in the experiment with BnaMPK6 (Brassica napus) and “no binding” in experiment [2].
On to BnaMKK9 (from UniProt S4TFE5), for which the binding entry with BnaMPK2 (Brassica napus) is “binds”; in the experiment with BnaMPK3 (Brassica napus), “no binding”; with BnaMPK1 (Brassica napus), “binds”; in the experiment with BnaMPK5 (Brassica napus), “binds”; in experiment [1], “binds”; with BnaMPK9 (Brassica napus) it was “binds”. For the same substance, the figures for the binding result (with BnaMPK6 (Brassica napus); in experiment [2]) were “no binding” and “binds”, respectively.
